Measured values published in publication PMC12022042.
Results are given in words; binding and its absence hold for the method and conditions named. In cells and extracts the contact can be indirect. Binding calls can cover weak binding; strength is not graded here.

Amino acid sequences for entries named in this document (tags omitted). A change or cut given only in a name is not applied to a line headed by its entry.
UniProt Q96A61: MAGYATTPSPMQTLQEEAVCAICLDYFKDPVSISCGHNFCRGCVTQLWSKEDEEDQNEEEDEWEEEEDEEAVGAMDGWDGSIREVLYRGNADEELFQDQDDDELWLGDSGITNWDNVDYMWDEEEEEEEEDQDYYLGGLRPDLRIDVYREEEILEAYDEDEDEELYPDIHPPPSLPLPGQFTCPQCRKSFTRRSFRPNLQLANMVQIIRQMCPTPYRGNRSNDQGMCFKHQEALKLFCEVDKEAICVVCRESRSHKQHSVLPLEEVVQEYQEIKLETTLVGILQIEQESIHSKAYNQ
UniProt Q9NR09: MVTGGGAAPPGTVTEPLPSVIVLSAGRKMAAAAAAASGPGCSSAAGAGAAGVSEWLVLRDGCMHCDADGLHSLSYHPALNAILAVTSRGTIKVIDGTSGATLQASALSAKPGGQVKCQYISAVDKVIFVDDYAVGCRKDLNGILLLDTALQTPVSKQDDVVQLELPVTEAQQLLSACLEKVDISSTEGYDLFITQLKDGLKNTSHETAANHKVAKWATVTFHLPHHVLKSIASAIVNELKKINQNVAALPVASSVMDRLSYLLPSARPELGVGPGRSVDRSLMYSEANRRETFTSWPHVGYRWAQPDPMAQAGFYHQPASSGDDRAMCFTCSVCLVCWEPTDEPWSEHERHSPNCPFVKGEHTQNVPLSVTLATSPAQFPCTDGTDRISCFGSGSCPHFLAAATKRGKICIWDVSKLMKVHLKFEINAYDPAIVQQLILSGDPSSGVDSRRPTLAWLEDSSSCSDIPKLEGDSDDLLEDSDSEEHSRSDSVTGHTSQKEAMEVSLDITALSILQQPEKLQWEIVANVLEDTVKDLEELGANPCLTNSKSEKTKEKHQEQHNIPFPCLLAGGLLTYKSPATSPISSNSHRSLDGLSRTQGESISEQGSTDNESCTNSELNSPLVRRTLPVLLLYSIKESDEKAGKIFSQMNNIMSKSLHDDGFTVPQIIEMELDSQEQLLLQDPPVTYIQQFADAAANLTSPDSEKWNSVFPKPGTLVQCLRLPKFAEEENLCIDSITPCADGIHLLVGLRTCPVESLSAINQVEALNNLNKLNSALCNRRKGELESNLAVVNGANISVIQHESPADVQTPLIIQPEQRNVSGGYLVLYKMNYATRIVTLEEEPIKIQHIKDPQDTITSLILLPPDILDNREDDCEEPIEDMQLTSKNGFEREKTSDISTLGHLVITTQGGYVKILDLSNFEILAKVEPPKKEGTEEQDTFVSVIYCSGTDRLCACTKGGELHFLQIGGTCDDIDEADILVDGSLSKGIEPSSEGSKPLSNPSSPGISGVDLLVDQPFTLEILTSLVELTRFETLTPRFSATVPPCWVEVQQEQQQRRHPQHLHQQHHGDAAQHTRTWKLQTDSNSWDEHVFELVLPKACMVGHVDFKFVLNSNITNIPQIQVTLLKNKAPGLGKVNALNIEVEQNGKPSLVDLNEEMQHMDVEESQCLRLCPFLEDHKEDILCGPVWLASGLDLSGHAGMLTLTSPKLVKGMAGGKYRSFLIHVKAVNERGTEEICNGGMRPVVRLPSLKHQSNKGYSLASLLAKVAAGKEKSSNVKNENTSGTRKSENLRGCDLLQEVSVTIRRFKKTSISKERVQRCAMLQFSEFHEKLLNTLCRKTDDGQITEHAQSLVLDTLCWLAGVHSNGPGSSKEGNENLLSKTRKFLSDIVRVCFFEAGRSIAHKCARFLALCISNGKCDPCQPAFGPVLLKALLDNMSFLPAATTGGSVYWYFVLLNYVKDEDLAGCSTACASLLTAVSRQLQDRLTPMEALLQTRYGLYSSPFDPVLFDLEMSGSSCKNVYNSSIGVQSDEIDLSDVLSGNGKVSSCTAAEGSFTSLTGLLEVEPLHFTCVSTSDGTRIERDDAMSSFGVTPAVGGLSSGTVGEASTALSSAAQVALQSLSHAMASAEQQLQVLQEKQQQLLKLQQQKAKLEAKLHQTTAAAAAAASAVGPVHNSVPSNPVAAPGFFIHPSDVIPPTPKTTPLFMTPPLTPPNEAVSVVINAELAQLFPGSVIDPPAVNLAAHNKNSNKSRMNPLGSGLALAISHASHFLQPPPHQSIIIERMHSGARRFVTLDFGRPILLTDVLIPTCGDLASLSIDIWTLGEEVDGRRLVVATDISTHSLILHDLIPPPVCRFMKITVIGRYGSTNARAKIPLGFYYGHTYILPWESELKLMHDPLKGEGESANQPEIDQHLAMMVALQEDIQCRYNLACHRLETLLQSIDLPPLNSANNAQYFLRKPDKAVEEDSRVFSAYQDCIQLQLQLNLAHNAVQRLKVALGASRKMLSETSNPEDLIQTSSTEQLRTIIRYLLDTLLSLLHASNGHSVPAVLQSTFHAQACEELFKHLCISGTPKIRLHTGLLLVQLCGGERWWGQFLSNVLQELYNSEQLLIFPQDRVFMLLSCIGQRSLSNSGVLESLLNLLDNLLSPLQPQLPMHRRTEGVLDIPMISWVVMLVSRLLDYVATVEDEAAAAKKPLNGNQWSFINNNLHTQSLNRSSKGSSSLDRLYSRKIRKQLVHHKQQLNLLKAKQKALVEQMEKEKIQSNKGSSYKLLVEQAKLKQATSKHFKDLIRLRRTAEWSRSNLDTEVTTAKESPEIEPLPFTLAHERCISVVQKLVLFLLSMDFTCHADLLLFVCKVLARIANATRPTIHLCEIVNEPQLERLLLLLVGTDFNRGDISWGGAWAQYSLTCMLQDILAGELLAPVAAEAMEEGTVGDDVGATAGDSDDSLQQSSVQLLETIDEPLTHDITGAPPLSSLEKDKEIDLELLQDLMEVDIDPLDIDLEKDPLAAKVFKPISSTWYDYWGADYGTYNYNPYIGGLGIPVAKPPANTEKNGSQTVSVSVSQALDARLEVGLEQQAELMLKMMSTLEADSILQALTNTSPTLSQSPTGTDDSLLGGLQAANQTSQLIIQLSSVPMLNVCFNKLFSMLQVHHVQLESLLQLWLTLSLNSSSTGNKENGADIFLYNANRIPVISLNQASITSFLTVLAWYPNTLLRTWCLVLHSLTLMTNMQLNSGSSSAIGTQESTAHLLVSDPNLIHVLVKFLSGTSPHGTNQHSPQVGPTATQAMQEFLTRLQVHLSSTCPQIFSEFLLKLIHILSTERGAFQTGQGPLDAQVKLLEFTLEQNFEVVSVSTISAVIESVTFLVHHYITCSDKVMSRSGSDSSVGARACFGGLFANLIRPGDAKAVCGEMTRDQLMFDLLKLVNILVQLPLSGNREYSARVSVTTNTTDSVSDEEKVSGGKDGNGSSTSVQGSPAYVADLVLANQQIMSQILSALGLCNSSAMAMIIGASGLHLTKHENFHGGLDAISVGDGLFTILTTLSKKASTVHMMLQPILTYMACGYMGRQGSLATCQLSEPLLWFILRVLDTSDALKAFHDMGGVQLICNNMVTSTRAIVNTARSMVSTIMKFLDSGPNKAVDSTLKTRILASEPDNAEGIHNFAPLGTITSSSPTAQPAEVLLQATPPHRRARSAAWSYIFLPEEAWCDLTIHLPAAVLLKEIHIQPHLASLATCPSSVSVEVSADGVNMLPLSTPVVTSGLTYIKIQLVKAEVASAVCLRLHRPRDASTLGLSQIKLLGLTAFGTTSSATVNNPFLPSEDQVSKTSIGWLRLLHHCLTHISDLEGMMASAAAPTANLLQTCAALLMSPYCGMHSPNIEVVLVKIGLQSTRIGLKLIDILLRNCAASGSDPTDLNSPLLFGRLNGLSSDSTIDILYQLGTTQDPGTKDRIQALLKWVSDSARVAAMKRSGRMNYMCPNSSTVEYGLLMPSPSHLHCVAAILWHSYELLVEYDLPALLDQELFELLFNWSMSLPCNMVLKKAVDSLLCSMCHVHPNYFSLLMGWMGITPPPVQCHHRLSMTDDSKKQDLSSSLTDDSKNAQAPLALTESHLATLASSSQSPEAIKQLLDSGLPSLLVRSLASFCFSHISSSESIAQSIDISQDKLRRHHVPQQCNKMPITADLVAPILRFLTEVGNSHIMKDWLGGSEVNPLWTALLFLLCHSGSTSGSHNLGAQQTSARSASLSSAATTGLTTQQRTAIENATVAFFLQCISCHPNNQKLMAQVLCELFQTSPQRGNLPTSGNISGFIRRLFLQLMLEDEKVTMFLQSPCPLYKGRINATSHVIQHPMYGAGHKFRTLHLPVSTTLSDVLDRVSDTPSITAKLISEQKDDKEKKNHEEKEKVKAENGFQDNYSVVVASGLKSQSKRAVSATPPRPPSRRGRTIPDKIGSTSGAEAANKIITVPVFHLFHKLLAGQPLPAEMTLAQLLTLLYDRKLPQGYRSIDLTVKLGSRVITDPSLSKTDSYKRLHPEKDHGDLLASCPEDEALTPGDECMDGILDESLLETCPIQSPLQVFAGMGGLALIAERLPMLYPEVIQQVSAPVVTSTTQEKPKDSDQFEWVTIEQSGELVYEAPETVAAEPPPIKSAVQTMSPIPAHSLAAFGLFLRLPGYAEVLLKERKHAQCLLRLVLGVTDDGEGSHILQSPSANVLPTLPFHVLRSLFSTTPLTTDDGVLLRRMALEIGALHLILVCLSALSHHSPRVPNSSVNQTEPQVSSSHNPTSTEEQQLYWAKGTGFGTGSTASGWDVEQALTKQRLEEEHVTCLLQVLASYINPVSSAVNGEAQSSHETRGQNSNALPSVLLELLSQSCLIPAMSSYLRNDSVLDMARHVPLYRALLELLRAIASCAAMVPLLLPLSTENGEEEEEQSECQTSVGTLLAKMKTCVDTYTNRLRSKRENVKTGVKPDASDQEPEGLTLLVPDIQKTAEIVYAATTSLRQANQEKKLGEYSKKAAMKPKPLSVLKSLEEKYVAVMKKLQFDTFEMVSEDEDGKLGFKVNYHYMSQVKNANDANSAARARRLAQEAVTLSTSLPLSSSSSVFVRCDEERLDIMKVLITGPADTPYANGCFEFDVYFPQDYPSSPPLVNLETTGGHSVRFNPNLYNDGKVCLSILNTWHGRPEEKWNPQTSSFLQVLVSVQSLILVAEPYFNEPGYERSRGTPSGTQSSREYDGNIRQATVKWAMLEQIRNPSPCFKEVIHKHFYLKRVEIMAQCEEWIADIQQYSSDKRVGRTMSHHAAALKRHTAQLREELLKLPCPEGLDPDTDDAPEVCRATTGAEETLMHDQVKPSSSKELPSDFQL

Target: 3xHA-tagged TRIM52 (ΔLoop2) (human) (UniProt Q96A61)
Experiment: co-IP; HEK-293T cells expressing 3xHA-tagged TRIM52 or ΔLoop2, treated with epoxomicin for 5 h; Frackelton lysis buffer (50 mM NaCl, 1% Triton X-100); anti-HA antibody and Protein A/G magnetic beads, 4 °C; WB for endogenous E3 ligases

- binding: binds
Substance: BIRC6 (endogenous) (from UniProt Q9NR09 1-4857) (enzyme)
